## Percent effect of library compounds

Source: ChEMBL document CHEMBL3988442, “University of Dundee, Small-Polar-MMV Screening Library” (2021).

Each number is a percent effect as filed.
How 0% and 100% were set is not recorded. Most values in the screen are low, and negative values occur.
Compounds were drawn at random from those tested, without regard to their results.

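Whole-parasite assay of Trypanosoma brucei over 72 hours; the read-out is not stated. Tested at 30 µM. Higher reads as stronger inhibition (inferred: compounds with an IC50 in retests scored well above the rest). Values scatter widely below zero; nearly all retest evidence comes from the higher of the two concentrations used. Of about 64,000 compounds tested this way, about 940 (1.5%) reached 50% or more in at least one test.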

SMILES | Percent Effect
N#Cc1cccc(CN2CCCC2Cn2cccn2)c1 (stereo not drawn) | -1.955%
CCN(C(=O)c1ccccc1I)C1CC(=O)NC1=O (stereo not drawn) | -24.54%
Cc1cnn(CC(=O)N2CCC(c3ccn4nccc4n3)CC2)c1 | -10.43%
OC(COc1ccccc1)CN1CCc2c(ncn2C2CC2)C1 (stereo not drawn) | 47.47%
Cc1ccc(C(=O)N2CCCC(C(=O)N3CCCCC3)C2)c(O)c1 (stereo not drawn) | -40.68%
O=C(NCCC1CCN(CC(F)(F)F)CC1)C1CCOC1 (stereo not drawn) | -3.888%
Cc1noc(CCCNC(=O)CNC(=O)c2cc3ccccc3[nH]2)n1 | 3.19%
Cl.O[C@@H]1CN(Cc2ccc(F)c(F)c2)CC[C@H]1NCc1ccccn1 | -19.8%
Cc1cnc(C(=O)N2CCC3(CCN3Cc3ccc(F)cc3)C2)cn1.O=C(O)C(F)(F)F (stereo not drawn) | -0.08426%
Cc1nc(C)n(CC2CCCN(Cc3nc(C4CC4)no3)C2)n1 (stereo not drawn) | 7.49%
O=C(NCc1nc[nH]n1)c1cc(COc2cccc(C(F)(F)F)c2)[nH]n1 | -60.07%
CN(C)C(=O)C1CCC2(CCN(C(=O)Nc3cccc(F)c3)CC2)O1 (stereo not drawn) | 5.097%
Cc1nc(C)c(CCNc2ccc(S(N)(=O)=O)cc2C#N)s1 | -15.11%
O=C(O)C(F)(F)F.[H][C@@]12CN(C(=O)Cc3ccccc3)C[C@]1([H])OCCN2CC1CCCO1 (stereo partly drawn) | -20.2%
CC(C)CN1CC(O)CN(S(=O)(=O)c2ccccc2)CC1=O (stereo not drawn) | -24.62%
CN(C)Cc1ccnc(C2CN(CCCc3ccccc3)CCO2)n1 (stereo not drawn) | -10.49%
COc1cccc(C(=O)N2CCCC(c3cc(C)[nH]n3)C2)c1OC (stereo not drawn) | -2.832%
C[C@@H]1C[C@H](C(F)(F)F)n2nc(C3CCN(S(C)(=O)=O)CC3)cc2N1 | -14.64%
Cc1cc(Cc2ccccc2)cc(C2CCCNC2)n1 (stereo not drawn) | 2.708%
O=C(O)[C@@H]1CN(CC2CCC2)C[C@H]1c1ccc(F)cc1 | -1.505%
Cc1ccc([C@@H]2CN(C(=O)c3csc(C)n3)C[C@H]2NC(=O)C2CC2)cc1 | 34.57%
Cc1ccccc1CN(CCN(C)C)Cc1ccccc1C(=O)O | 25.31%
Cc1nc(C2(NCC(=O)NC(=O)NCC(F)(F)F)CCCCC2)no1 | -20.43%
CCN(CC1CCOC1)C(=O)NCc1ccc(-n2cncn2)nc1 (stereo not drawn) | 3.815%
O=C(O)C(F)(F)F.O=C(O)C(F)(F)F.c1cncc(COCc2nnc3n2CCN(Cc2cccs2)C3)c1 | -15.78%
CC(=O)N1N=C(c2cccs2)OC1C(=O)NCCc1cccc(Cl)c1 (stereo not drawn) | -17.45%
Cc1nn(S(=O)(=O)c2ccc(Cl)cc2)c(C)c1C | -100.5%
Cc1nn(CC(C)C)cc1S(=O)(=O)N(C)Cc1nonc1C | -5.837%
Cc1ncc(CN2CCCC(c3nc4ccccc4n3C(C)C)C2)s1 (stereo not drawn) | 32.55%
O=C(NCCc1nccs1)C(c1ccccc1)n1cnnn1 (stereo not drawn) | 5.413%
CCc1ccc2nc(C)cc(C(=O)NC3CCCCNC3=O)c2c1 (stereo not drawn) | -23.05%
Cc1cc(C2CCCN(CCCS(C)(=O)=O)C2)n[nH]1 (stereo not drawn) | -17.47%
COCCN1CC2(CCCN(c3ncnc4[nH]cnc34)C2)CCC1=O (stereo not drawn) | -10.68%
O=C(CN1CCCC(Cn2cncn2)C1)Nc1cccnc1 (stereo not drawn) | -19.45%
CCc1nc(C)c(C(=O)NCCNc2ncccc2C#N)s1 | -30.29%
O=C(O)C(F)(F)F.[H][C@]12CC[C@@]3(N=C(CC)N(C)C3=O)[C@@]1([H])CN(Cc1cccc(Cl)c1)C2 | -29.91%
c1ccc2c(c1)COC1(CCCC1)N2 | -42.55%
CCOC(=O)N1CCC(NCC2CCN(c3cnn(C)c(=O)c3)C2)CC1 (stereo not drawn) | -12.14%
COc1ccc2c(ccn2CCC(=O)/N=c2\[nH]nc(C3CCCO3)s2)c1 (stereo not drawn) | 2.419%
[H][C@@]12CCN(Cc3scnc3C)C[C@]1(C(=O)N1CCCO1)CCO2 | -4.827%
COC[C@@H]1CCCN1C(=O)CCc1c(C)nn(C)c1C | -67.61%
O=C(O)C(F)(F)F.[H][C@]12CN(Cc3ccccc3Cl)C[C@@]1([H])OCCN(C(C)=O)C2 | -84.49%
CC(C)(C)OC(=O)N1CCCN(c2nnc(C3CC3)s2)CC1 | -44.8%
Cc1ccc(NC2CCN(C(=O)c3ccc(Cl)cc3F)CC2)nn1 | -0.2147%
CC(C)c1nc2c(n1C)CCN(CCCc1nc3ccccc3o1)C2 | -74.86%
O=C(NCc1ccccc1)NCC1CCN(Cc2ccsc2)CC1 | 4.573%
CCN1Cc2nc(OC)c(CNC(=O)C3CCCN(C)C3)cc2C1=O (stereo not drawn) | -50.13%
O=C(NCCCn1cccn1)N1CCCC1c1cccs1 (stereo not drawn) | 13.85%
Cn1nc(-c2ccccc2)c(Cl)c1C(=O)O | -37.4%

Some entries from above, unchanged:

SMILES,Percent Effect
N#Cc1cccc(CN2CCCC2Cn2cccn2)c1 (stereo not drawn),-1.955%
[H][C@@]12CCN(Cc3scnc3C)C[C@]1(C(=O)N1CCCO1)CCO2,-4.827%
O=C(NCc1nc[nH]n1)c1cc(COc2cccc(C(F)(F)F)c2)[nH]n1,-60.07%
CCOC(=O)N1CCC(NCC2CCN(c3cnn(C)c(=O)c3)C2)CC1 (stereo not drawn),-12.14%
COCCN1CC2(CCCN(c3ncnc4[nH]cnc34)C2)CCC1=O (stereo not drawn),-10.68%